{"source": "PubChem BioAssay AID1224830 (NIAID, 2016)", "aim": "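Regulators of TLR4 signalling towards TNF-alpha in macrophage-like cells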 (primary screen)", "cell system": "human THP-1 monocytic leukaemia cells, TNF dual-luciferase reporter clone, PMA-differentiated to macrophage-like cells", "knock-down reagent": "siRNA pool against human genes, 50 nM", "duration": "LPS for 4 h, given about 3 days after siRNA transfection", "challenge": "bacterial LPS (TLR4 ligand), 10 ng/ml", "measured": "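TNF firefly reporter luminescence divided by renilla, normalised to the plate median, then turned into a robust z-score for each replicate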", "scale": "TNF reporter robust z-score: higher = stronger TNF reporter response to LPS", "hit rule": "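a well is active when its z-score exceeds 2.8 or falls below -1.5; control wells carry no call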", "note": "Shown is an unselected part of about 18,000 reagents. Over the whole deposit, about 2,900 (16%) were called active. 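Calls are made per well; low scores hint the gene aids the LPS response, high scores that it dampens it.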 A number with no mark means an inactive call. Repeated entries: four replicate wells of each siRNA pool. Reagent sequences are not shown."}
{"target":"ZNF232","TNF reporter robust z-score":1.35}
{"target":"ZNF232","TNF reporter robust z-score":2.03}
{"target":"ZNF232","TNF reporter robust z-score":2}
{"target":"ZNF232","TNF reporter robust z-score":1.25}
{"target":"NOP9","TNF reporter robust z-score":0.98}
{"target":"NOP9","TNF reporter robust z-score":2.23}
{"target":"NOP9","TNF reporter robust z-score":1.02}
{"target":"NOP9","TNF reporter robust z-score":1.94}

3 of these entries, set out differently:
{"target": "ZNF232", "TNF reporter robust z-score": 1.25}
{"target": "NOP9", "TNF reporter robust z-score": 0.98}
{"target": "NOP9", "TNF reporter robust z-score": 2.23}

The results go on.
{"target":"ARHGAP5","TNF reporter robust z-score":"-1.64 (active)"}
{"target":"ARHGAP5","TNF reporter robust z-score":-0.82}
{"target":"ARHGAP5","TNF reporter robust z-score":-1.38}
{"target":"ARHGAP5","TNF reporter robust z-score":-0.12}
{"target":"EIF6","TNF reporter robust z-score":0.85}
{"target":"EIF6","TNF reporter robust z-score":0.03}
{"target":"EIF6","TNF reporter robust z-score":-0.17}
{"target":"EIF6","TNF reporter robust z-score":0.2}
{"target":"VAX1","TNF reporter robust z-score":-0.34}
{"target":"VAX1","TNF reporter robust z-score":0.91}
{"target":"VAX1","TNF reporter robust z-score":1.74}
{"target":"VAX1","TNF reporter robust z-score":-1.09}
